Test results from US20150074844A1.
No constants are given. Whether binding was seen depends on the method and setting. Binding seen in cells or lysates may run through a third protein. A yes stands for co-enrichment or nearness to the bait. Other partners may have been found. Tags and fused reporters may be left off the sequences shown.

Assays:
Experiment in all cases: immunoprecipitation from floral organs of transgenic plants and mass spectrometry
[1] = target: T1, PYL2 (endogenous, from Arabidopsis floral organs) (Arabidopsis thaliana) (UniProt O80992)
T1 sequence: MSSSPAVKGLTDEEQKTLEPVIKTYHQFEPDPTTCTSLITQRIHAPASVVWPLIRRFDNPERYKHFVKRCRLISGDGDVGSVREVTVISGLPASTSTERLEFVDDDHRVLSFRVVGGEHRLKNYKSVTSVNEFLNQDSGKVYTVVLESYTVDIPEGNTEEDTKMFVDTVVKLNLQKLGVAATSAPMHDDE

[2] = target: T2, PP2CA (endogenous, from Arabidopsis floral organs) (Arabidopsis) (UniProt P49598)
T2 sequence (looked up): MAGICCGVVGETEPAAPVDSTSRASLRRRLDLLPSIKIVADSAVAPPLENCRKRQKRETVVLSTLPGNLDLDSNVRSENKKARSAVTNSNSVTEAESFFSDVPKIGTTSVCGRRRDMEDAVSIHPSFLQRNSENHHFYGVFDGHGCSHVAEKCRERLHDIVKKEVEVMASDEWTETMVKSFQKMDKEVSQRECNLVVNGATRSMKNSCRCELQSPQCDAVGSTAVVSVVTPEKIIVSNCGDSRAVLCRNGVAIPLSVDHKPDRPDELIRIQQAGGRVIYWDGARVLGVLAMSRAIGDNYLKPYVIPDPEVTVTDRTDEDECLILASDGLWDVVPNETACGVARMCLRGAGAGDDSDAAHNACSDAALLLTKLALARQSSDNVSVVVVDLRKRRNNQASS

[3] = target: T3, HAI1 (endogenous, from Arabidopsis floral organs) (Arabidopsis) (UniProt Q9FIF5)
T3 sequence (looked up): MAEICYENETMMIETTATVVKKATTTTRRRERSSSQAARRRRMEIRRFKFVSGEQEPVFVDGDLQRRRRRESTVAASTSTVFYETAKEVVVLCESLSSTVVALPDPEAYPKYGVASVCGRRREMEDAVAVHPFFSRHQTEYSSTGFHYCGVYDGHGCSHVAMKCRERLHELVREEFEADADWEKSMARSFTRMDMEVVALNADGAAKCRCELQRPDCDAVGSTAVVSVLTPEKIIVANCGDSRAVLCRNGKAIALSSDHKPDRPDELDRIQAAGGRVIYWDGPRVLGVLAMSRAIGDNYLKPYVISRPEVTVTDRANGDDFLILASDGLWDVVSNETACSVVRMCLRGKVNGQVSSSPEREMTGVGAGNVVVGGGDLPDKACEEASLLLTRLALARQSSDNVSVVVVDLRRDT

Measured: binding

B1: PYL13-HA-YFP (protein, not shown: large carriers)
chain: MESSKQKRCRSSVVETIEAPLPLVWSILRSFDKPQAYQRFVKSCTMRSGGGGGKGGEGKGSVRDVTLVSGFPADFSTERLEELDDESHVMVVSIIGGNHRLVNYKSKTKVVASPEDMAKKTVVVESYVVDVPEGTSEEDTIFFVDNIIRYNLTSLAKLTKKMMK
binds: all assays above
